In patent US20200165319A1:
No constants are given. Whether binding was seen depends on the method and setting. Some binding calls cover weakened binding; strength is not graded here.

Target: synthetic polypeptide … based on the human type III collagen Pro488 to Gly510 segment contained in TE16C (human)
Test: X-ray crystal structure (self-association, homotrimer)

GFRGPAGPNGIPGEKGPAGERG
binding: binds
